Source: PMC8533965
No constants are given. Whether binding was seen depends on the method and setting. Binding seen in cells or lysates may run through a third protein. Sequences can lack the tags named with a protein.

Assays:
Test in all cases: split reporter; BiFC with split Venus in living zebrafish embryos: Buc constructs with VC and zfVasa constructs with VN at their C-termini, mRNAs (200 ng/μL) co-injected at the one-cell stage, fluorescence imaged at 3 hpf by confocal microscopy; read-out percent of fluorescent embryos, three independent …
[1] = biological target: zfVasa-IDR (amino acids 1–277) fused to the Venus N-terminal half (zebrafish)
[2] = biological target: zfVasa I609Q (full length) fused to the Venus N-terminal half (zebrafish)
[3] = biological target: zfVasa RecA-NTD (amino acids 278–495) fused to the Venus N-terminal half (zebrafish)

Measured: binding

B1: Bucky ball, full length (amino acids 1–639), fused to the Venus C-terminal half (Buc-VC) (protein, UniProt H0WFA5 1-639)
chain: MEGINNNSQPMGVGQPHHPVNHTRPFFYVQPPSQPYFMYQWPMNPYGHYGFPGPALHFGRPYMAPYQFMQYPGYVIPHAPMQPIDYRRINPHYPSVASYDLRVRHHFQNAGMHRETACSEVQTDPSDSVNKLIDKIESLKACELGSDKGPNNVVSSTPDVVQGEKLTRLNEDSNLEVATKECKEDPVTRPTTYSDSAYDAESSQGRLDECVFSDVLPLDSSSVHEEEEEEEKDVNEEDEPQTVADEICSQNEMSASTTSNVFCSGVQSIADPTECHDLEKLGDEQKQDIPSADAAAVIEPLISLSEDFDLPYQILRLPCNKTTTGLSLEREIDPLVYFDSPSTLLPPQNYLSSIGSAYSYSYYPQVTQERQSVLSPSIDELSSRDEMFSTDVEDLEVVPGHVYVGGGRLAEASDMPVRSRKELPSVDKTCSVCQKTCACCGSTLQDEVGMCKMAEHSHPERDEMSDQDCDYDLEAEVRSNCESPRVSKRKCCSRHALPSCGHHCAKHRHRKLLCEGQESCDLREQARVHPKGECCEEYGALAKADKRIQKGALCRPCIEQQWREGVVSDQENWASCGAKPRSWRQVTGPQDQGRTPLRRSTCKSIHQQRPRSEYNDYDETEFTYCQRGRGSMKKRGSRY
no binding: all assays above
